Source: publication PMC10511324
No constants are given. Whether binding was seen depends on the method and setting. In cells and extracts the contact can be indirect. Some entries that bind do so weakly or less than the wild type. For part of these data: Sequences can lack the tags named with a protein. Blank lines part the entries; values can stand above or below the binder they belong to.

Tests used:
[1] = molecular target: T1, Tim17^K36C (in the SCF background) (S. cerevisiae) (UniProt P39515); assay: cross-linking; in organello: 35S-labelled precursor arrested at TOM–TIM23 import sites of isolated yeast mitochondria (5 µM MTX for the DHFR fusions), then 1 mM MBS (cysteine- and amino-reactive, 7.3 Å) 30 min on ice in SEM buffer; SDS–PAGE and autoradiography
T1 sequence: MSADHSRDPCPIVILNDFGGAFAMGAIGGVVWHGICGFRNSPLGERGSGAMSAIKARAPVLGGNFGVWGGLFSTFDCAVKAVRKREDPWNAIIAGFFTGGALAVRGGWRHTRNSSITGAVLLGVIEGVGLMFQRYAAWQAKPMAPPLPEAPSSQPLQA

[2] = molecular target: T2, Tim17^N64C (in the SCF background) (S. cerevisiae) (UniProt P39515); assay: as above
T2 sequence: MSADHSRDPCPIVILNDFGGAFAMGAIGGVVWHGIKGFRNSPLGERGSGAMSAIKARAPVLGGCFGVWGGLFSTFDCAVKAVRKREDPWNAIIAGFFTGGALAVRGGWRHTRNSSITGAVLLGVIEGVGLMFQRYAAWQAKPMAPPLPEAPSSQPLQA

[3] = molecular target: T3, Tim17^Linker-2xStrep (S. cerevisiae) (UniProt P39515); assay: cross-linking; mitochondria heat-shocked at 37 °C for 10 min, import at 25 °C, chemical crosslinking (crosslinker not named); b2(110)∆19-DHFR^# products analysed directly, Cox5a–sfGFP products purified with a GFP nanobody; SDS–PAGE and autoradiography
T3 sequence: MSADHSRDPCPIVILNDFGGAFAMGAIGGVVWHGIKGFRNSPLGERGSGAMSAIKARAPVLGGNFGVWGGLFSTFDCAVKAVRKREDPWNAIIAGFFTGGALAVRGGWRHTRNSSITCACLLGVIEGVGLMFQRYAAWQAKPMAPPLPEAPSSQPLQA

[4] = molecular target: T4, Tim17 (S. cerevisiae) (UniProt P39515); assay: as above
T4 sequence: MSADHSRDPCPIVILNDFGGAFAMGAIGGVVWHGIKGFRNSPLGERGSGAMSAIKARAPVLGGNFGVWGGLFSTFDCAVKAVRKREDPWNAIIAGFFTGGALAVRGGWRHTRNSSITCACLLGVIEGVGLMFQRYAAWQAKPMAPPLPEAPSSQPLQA

[5] = molecular target: T5, Jac1–sfGFP (UniProt P53193); assay: pull-down; recombinant Jac1–sfGFP (2.5 µM) arrested in isolated mitochondria, oxidised with 4-DPS, solubilised in 1% digitonin, captured on GFP nanobody magnetic agarose; SDS–PAGE and immunodecoration; only the target purified
T5 sequence: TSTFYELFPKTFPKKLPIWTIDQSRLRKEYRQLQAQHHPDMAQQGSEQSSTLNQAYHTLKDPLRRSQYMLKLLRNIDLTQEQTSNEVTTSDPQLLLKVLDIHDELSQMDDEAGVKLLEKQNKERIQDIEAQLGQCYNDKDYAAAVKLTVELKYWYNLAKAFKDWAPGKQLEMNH

[6] = molecular target: T5, Jac1–sfGFP; assay: pull-down; tandem purification after arrest of Jac1–sfGFP, 1% digitonin: first Strep-Tactin XT (Tim17^2xStrep) or Ni-NTA (^HisSumo*Tim23), then GFP nanobody; SDS–PAGE and immunodecoration; only the target purified
[7] = molecular target: T6, ^HisSUMOstarTim23 (S. cerevisiae), P32897; assay: pull-down; mitochondria co-expressing tagged and non-tagged copies of the same subunit, with arrested Jac1–sfGFP; first elution (Strep-Tactin XT or Ni-NTA) and second elution (GFP nanobody) compared by immunodecoration; settings: remark: other sources report otherwise
T6 chain: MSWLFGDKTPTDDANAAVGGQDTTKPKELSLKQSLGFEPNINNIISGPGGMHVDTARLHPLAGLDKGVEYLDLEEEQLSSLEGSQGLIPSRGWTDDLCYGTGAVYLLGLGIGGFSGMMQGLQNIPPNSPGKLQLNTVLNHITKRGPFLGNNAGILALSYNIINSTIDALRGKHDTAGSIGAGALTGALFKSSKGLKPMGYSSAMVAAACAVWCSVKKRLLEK

[8] = molecular target: T7, Tim23 (S. cerevisiae) (UniProt P32897); assay: cross-linking; disulfide bond formation in organello: isolated mitochondria untreated or with 0.2 mM 4-DPS 10 min on ice (lost with DTT); non-reducing SDS–PAGE, immunodecoration against Tim17 and Tim23
T7 sequence: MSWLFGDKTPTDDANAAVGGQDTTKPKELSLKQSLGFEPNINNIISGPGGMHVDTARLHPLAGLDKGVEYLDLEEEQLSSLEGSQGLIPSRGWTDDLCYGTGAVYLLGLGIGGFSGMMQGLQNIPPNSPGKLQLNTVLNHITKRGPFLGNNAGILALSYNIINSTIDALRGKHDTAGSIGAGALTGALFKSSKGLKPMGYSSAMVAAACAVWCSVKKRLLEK

[9] = molecular target: T7, Tim23 (S. cerevisiae); assay: cross-linking; disulfide bond formation with 4-DPS after arrest of recombinant Jac1–sfGFP; TOM–TIM23 supercomplexes isolated with a GFP nanobody, eluate on non-reducing SDS–PAGE
[10] = molecular target: T8, Tim17^Linker-2xStrep (S. cerevisiae), P39515; assay: pull-down; mitochondria co-expressing tagged and non-tagged copies of the same subunit, with arrested Jac1–sfGFP; first elution (Strep-Tactin XT or Ni-NTA) and second elution (GFP nanobody) compared by immunodecoration; settings: remark: other sources report otherwise
T8 chain: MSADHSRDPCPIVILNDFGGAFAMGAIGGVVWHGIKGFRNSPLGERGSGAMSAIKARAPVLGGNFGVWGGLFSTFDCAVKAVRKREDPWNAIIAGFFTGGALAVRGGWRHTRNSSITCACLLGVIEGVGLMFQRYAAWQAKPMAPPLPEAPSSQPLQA

binding [1]: binds
binding [2]: binds
binding [3]: binds
binding [4]: binds
B1: Cox5a(1–130)–sfGFP (domain or fragment, UniProt P00424 1-130)
chain: MLRNTFTRAGGLSRITSVRFAQTHALSNAAVMDLQSRWENMPSTEQQDIVSKLSERQKLPWAQLTEPEKQAVWYISYGEWGPRRPVLNKGDSSFIAKGVAAGLLFSVGLFAVVRMAGGQDAKTMNKEWQL
modifications: [35S]methionine-labelled

binding [5]: binds
B2: Tim23 (protein, UniProt P32897 1-222)
chain: MSWLFGDKTPTDDANAAVGGQDTTKPKELSLKQSLGFEPNINNIISGPGGMHVDTARLHPLAGLDKGVEYLDLEEEQLSSLEGSQGLIPSRGWTDDLCYGTGAVYLLGLGIGGFSGMMQGLQNIPPNSPGKLQLNTVLNHITKRGPFLGNNAGILALSYNIINSTIDALRGKHDTAGSIGAGALTGALFKSSKGLKPMGYSSAMVAAACAVWCSVKKRLLEK

binding [6]: binds
B3: ^HisSUMOstarTim23 (protein, UniProt P32897 1-222)
chain: MSWLFGDKTPTDDANAAVGGQDTTKPKELSLKQSLGFEPNINNIISGPGGMHVDTARLHPLAGLDKGVEYLDLEEEQLSSLEGSQGLIPSRGWTDDLCYGTGAVYLLGLGIGGFSGMMQGLQNIPPNSPGKLQLNTVLNHITKRGPFLGNNAGILALSYNIINSTIDALRGKHDTAGSIGAGALTGALFKSSKGLKPMGYSSAMVAAACAVWCSVKKRLLEK

binding [7]: no binding
B4: Tim23, P32897 1-222 (protein)
chain: MSWLFGDKTPTDDANAAVGGQDTTKPKELSLKQSLGFEPNINNIISGPGGMHVDTARLHPLAGLDKGVEYLDLEEEQLSSLEGSQGLIPSRGWTDDLCYGTGAVYLLGLGIGGFSGMMQGLQNIPPNSPGKLQLNTVLNHITKRGPFLGNNAGILALSYNIINSTIDALRGKHDTAGSIGAGALTGALFKSSKGLKPMGYSSAMVAAACAVWCSVKKRLLEK

binding [8]: binds
binding [9]: binds
binding [5]: binds
B5: Tim17^N16C (in the SCF background) (protein, UniProt P39515 1-158)
chain: MSADHSRDPCPIVILCDFGGAFAMGAIGGVVWHGIKGFRNSPLGERGSGAMSAIKARAPVLGGNFGVWGGLFSTFDCAVKAVRKREDPWNAIIAGFFTGGALAVRGGWRHTRNSSITGAVLLGVIEGVGLMFQRYAAWQAKPMAPPLPEAPSSQPLQA

binding [6]: binds
B6: Tim17^Linker-2xStrep (protein, UniProt P39515 1-158)
chain: MSADHSRDPCPIVILNDFGGAFAMGAIGGVVWHGIKGFRNSPLGERGSGAMSAIKARAPVLGGNFGVWGGLFSTFDCAVKAVRKREDPWNAIIAGFFTGGALAVRGGWRHTRNSSITCACLLGVIEGVGLMFQRYAAWQAKPMAPPLPEAPSSQPLQA

binding [10]: no binding
B7: Tim17, P39515 1-158 (protein)
chain: MSADHSRDPCPIVILNDFGGAFAMGAIGGVVWHGIKGFRNSPLGERGSGAMSAIKARAPVLGGNFGVWGGLFSTFDCAVKAVRKREDPWNAIIAGFFTGGALAVRGGWRHTRNSSITCACLLGVIEGVGLMFQRYAAWQAKPMAPPLPEAPSSQPLQA
